Values from PubChem BioAssay AID1053208 (Peter MacCallum Cancer Centre, 2014)

- Purpose: 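Synthetic lethal interactions between gene loss and doxorubicin in osteosarcoma cells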 (primary screen)
- Cell system: mouse osteosarcoma cells, early-passage culture from an engineered mouse model of fibroblastic bone tumour
- Knock-down reagent: siRNA pool against mouse genes, 40 nM
- Timing: about 120 h (48 h before drug, then 72 h with drug)
- Treatment: doxorubicin 100 nM for 72 h, roughly 30-40% inhibitory dose
- Measurement: 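Viability read as ATP luminescence after 72 h of 100 nM doxorubicin or none, duplicate wells averaged, scaled to non-targeting siRNA, then expressed as robust z-scores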
- Scale: viability z-score with doxorubicin and doxorubicin viability vs non-targeting: higher = more viable cells under doxorubicin; viability z-score without drug: higher = more viable cells with knock-down alone; z-score of drug to no-drug ratio: higher = less drug sensitisation by knock-down
- Hit rule: 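Called active if knock-down leaves viability unchanged without drug (z within -2 to 2) but lowers it with doxorubicin (z at or under -2)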
This is one part, drawn at random, of about 17,000 reagents tested. In the full data, 788 (4.7%) got an active call. 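Calls rest on z-score classes alone; an extra cut-off of viability at most 70% of control was not applied to them.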 No sequences are given here.

| gene knocked down | combined z-score class | viability z-score with doxorubicin | viability z-score without drug | z-score of drug to no-drug ratio | doxorubicin viability vs non-targeting | outcome |
| --- | --- | --- | --- | --- | --- | --- |
| Nlrp4b | no change with or without drug | -1.12 | -1.18 | -0.34 | 0.84 | inactive |
| Or2ag1 | no change with or without drug | -1.01 | -0.67 | -0.56 | 0.85 | inactive |
| Nt5el | low cell count with doxorubicin only | -2.36 | -0.17 | -2.25 | 0.73 | active |
| Noc2l | no change with or without drug | -0.9 | -1.35 | 0.11 | 0.86 | inactive |
| Ticam2 | no change with or without drug | 1.12 | 1.18 | 0.45 | 1.04 | inactive |
| Tubgcp2 | low cell count without drug only | -0.34 | -2.87 | 2.14 | 0.91 | inactive |
| Polr3b | no change with or without drug | -1.35 | -0.51 | -1.01 | 0.82 | inactive |
| Doc2b | no change with or without drug | 0.56 | 1.69 | -0.45 | 0.99 | inactive |
| Avpr2 | no change with or without drug | -0.22 | 0.84 | -0.67 | 0.92 | inactive |
| Bcl11b | no change with or without drug | -0.67 | -0.84 | 0 | 0.88 | inactive |
| Trim17 | high cell count without drug only | 0.9 | 2.19 | -0.45 | 1.02 | inactive |
| Trim60 | no change with or without drug | 0.11 | 0.17 | 0.11 | 0.95 | inactive |
| Atp5f1b | no change with or without drug | -0.45 | -0.51 | 0 | 0.9 | inactive |
| Cry2 | no change with or without drug | 0.45 | 0.84 | 0 | 0.98 | inactive |
| Oard1 | no change with or without drug | -0.11 | 0 | 0 | 0.93 | inactive |
| Or9i2 | no change with or without drug | 0.56 | -0.51 | 1.12 | 0.99 | inactive |
| Disp3 | no change with or without drug | 1.57 | 1.69 | 0.56 | 1.08 | inactive |
| Zkscan5 | high cell count with and without drug | 2.36 | 2.02 | 1.01 | 1.15 | inactive |
| Cdkl2 | no change with or without drug | -1.35 | -0.17 | -1.24 | 0.82 | inactive |
| Pcgf1 | no change with or without drug | 0.34 | 0.17 | 0.34 | 0.97 | inactive |
| Or4e5 | no change with or without drug | 0 | -1.18 | 1.01 | 0.94 | inactive |
| Smarcc2 | no change with or without drug | 0.45 | 0.84 | 0 | 0.98 | inactive |
| Gstcd | no change with or without drug | -0.56 | -0.84 | 0.11 | 0.89 | inactive |
| Nrbp2 | no change with or without drug | 0.22 | -1.52 | 1.57 | 0.96 | inactive |
| Gpr34 | no change with or without drug | -0.22 | 0.17 | -0.22 | 0.92 | inactive |
| Foxh1 | no change with or without drug | 0.67 | 0.84 | 0.22 | 1 | inactive |
| Cnr2 | no change with or without drug | 0.67 | -0.51 | 1.24 | 1 | inactive |
| Gm4792 | no change with or without drug | -0.11 | 1.01 | -0.67 | 0.93 | inactive |
| Tcp10b | no change with or without drug | -0.22 | -0.84 | 0.45 | 0.92 | inactive |
| Comtd1 | no change with or without drug | 0.67 | -0.34 | 1.12 | 1 | inactive |
| Scyl1 | no change with or without drug | -0.34 | -0.51 | 0.11 | 0.91 | inactive |
| Prepl | no change with or without drug | 1.12 | 0.34 | 1.01 | 1.04 | inactive |
| Tgfa | no change with or without drug | -0.79 | -1.18 | 0.11 | 0.87 | inactive |
| Fbxl6 | no change with or without drug | -1.01 | 0.84 | -1.46 | 0.85 | inactive |
| Igdcc3 | no change with or without drug | -1.35 | -0.84 | -0.79 | 0.82 | inactive |
| Spint1 | no change with or without drug | 1.12 | 0.84 | 0.67 | 1.04 | inactive |
| Or51ac3 | no change with or without drug | -1.35 | -1.35 | -0.45 | 0.82 | inactive |
| Scara3 | no change with or without drug | 0.79 | 0.84 | 0.34 | 1.01 | inactive |
| Diaph1 | high cell count with doxorubicin only | 2.02 | -0.51 | 2.7 | 1.12 | inactive |
| Arl3 | no change with or without drug | 0.9 | -0.51 | 1.46 | 1.02 | inactive |
| Nmi | no change with or without drug | -0.22 | -1.18 | 0.79 | 0.92 | inactive |
| Exoc3l | low cell count with doxorubicin only | -2.7 | -0.17 | -2.7 | 0.7 | active |
| Or5g27 | no change with or without drug | -0.34 | 0.51 | -0.56 | 0.91 | inactive |
| Usp2 | no change with or without drug | 0 | 1.69 | -0.9 | 0.94 | inactive |
| Or5w11 | no change with or without drug | 1.01 | 0.17 | 1.01 | 1.03 | inactive |
| Zfp622 | no change with or without drug | 1.35 | 0.17 | 1.35 | 1.06 | inactive |
| Nipsnap2 | no change with or without drug | -0.9 | -0.17 | -0.79 | 0.86 | inactive |
| Keap1 | no change with or without drug | -0.22 | 0.51 | -0.45 | 0.92 | inactive |
| Tm6sf1 | high cell count with doxorubicin only | 2.02 | 1.18 | 1.35 | 1.12 | inactive |
| Serpine1 | no change with or without drug | -0.45 | 0.51 | -0.67 | 0.9 | inactive |
| Nkx2-4 | no change with or without drug | -0.67 | -1.18 | 0.22 | 0.88 | inactive |
| Edrf1 | no change with or without drug | 0.79 | 1.18 | 0.11 | 1.01 | inactive |
| Chac2 | no change with or without drug | 0.56 | 0.51 | 0.34 | 0.99 | inactive |
| Vipr1 | no change with or without drug | -0.22 | 1.35 | -1.01 | 0.92 | inactive |
| Speer4b | no change with or without drug | 0.9 | 1.18 | 0.22 | 1.02 | inactive |
| BC005624 | no change with or without drug | -0.67 | -0.51 | -0.22 | 0.88 | inactive |
| Mrpl45 | low cell count with and without drug | -2.02 | -2.53 | -0.34 | 0.76 | inactive |
| Rtl5 | no change with or without drug | -0.22 | 1.18 | -0.9 | 0.92 | inactive |
| Mtrf1 | no change with or without drug | -1.12 | 0 | -1.12 | 0.84 | inactive |
| Ninj1 | no change with or without drug | 0.67 | -0.67 | 1.35 | 1 | inactive |
| Or4c35 | no change with or without drug | 0.9 | -0.51 | 1.46 | 1.02 | inactive |
| Stau2 | no change with or without drug | -1.12 | 1.18 | -1.8 | 0.84 | inactive |
| Rsl1d1 | high cell count without drug only | 1.57 | 3.2 | -0.34 | 1.08 | inactive |

In a second layout: results already given
{"gene knocked down": "Gpr34", "combined z-score class": "no change with or without drug", "viability z-score with doxorubicin": -0.22, "viability z-score without drug": 0.17, "z-score of drug to no-drug ratio": -0.22, "doxorubicin viability vs non-targeting": 0.92, "outcome": "inactive"}
{"gene knocked down": "Foxh1", "combined z-score class": "no change with or without drug", "viability z-score with doxorubicin": 0.67, "viability z-score without drug": 0.84, "z-score of drug to no-drug ratio": 0.22, "doxorubicin viability vs non-targeting": 1, "outcome": "inactive"}
{"gene knocked down": "Cnr2", "combined z-score class": "no change with or without drug", "viability z-score with doxorubicin": 0.67, "viability z-score without drug": -0.51, "z-score of drug to no-drug ratio": 1.24, "doxorubicin viability vs non-targeting": 1, "outcome": "inactive"}
{"gene knocked down": "Gm4792", "combined z-score class": "no change with or without drug", "viability z-score with doxorubicin": -0.11, "viability z-score without drug": 1.01, "z-score of drug to no-drug ratio": -0.67, "doxorubicin viability vs non-targeting": 0.93, "outcome": "inactive"}
{"gene knocked down": "Tcp10b", "combined z-score class": "no change with or without drug", "viability z-score with doxorubicin": -0.22, "viability z-score without drug": -0.84, "z-score of drug to no-drug ratio": 0.45, "doxorubicin viability vs non-targeting": 0.92, "outcome": "inactive"}
{"gene knocked down": "Comtd1", "combined z-score class": "no change with or without drug", "viability z-score with doxorubicin": 0.67, "viability z-score without drug": -0.34, "z-score of drug to no-drug ratio": 1.12, "doxorubicin viability vs non-targeting": 1, "outcome": "inactive"}
{"gene knocked down": "Scyl1", "combined z-score class": "no change with or without drug", "viability z-score with doxorubicin": -0.34, "viability z-score without drug": -0.51, "z-score of drug to no-drug ratio": 0.11, "doxorubicin viability vs non-targeting": 0.91, "outcome": "inactive"}
{"gene knocked down": "Prepl", "combined z-score class": "no change with or without drug", "viability z-score with doxorubicin": 1.12, "viability z-score without drug": 0.34, "z-score of drug to no-drug ratio": 1.01, "doxorubicin viability vs non-targeting": 1.04, "outcome": "inactive"}
{"gene knocked down": "Tgfa", "combined z-score class": "no change with or without drug", "viability z-score with doxorubicin": -0.79, "viability z-score without drug": -1.18, "z-score of drug to no-drug ratio": 0.11, "doxorubicin viability vs non-targeting": 0.87, "outcome": "inactive"}
{"gene knocked down": "Fbxl6", "combined z-score class": "no change with or without drug", "viability z-score with doxorubicin": -1.01, "viability z-score without drug": 0.84, "z-score of drug to no-drug ratio": -1.46, "doxorubicin viability vs non-targeting": 0.85, "outcome": "inactive"}
